Data from patent publication US20260209365A1, “ANTI-COMMON GAMMA CHAIN PROTEINS AND COMPOSITIONS OF MATTER” (SINOMAB BIOSCIENCE LIMITED, priority 2023, published 2026).
Substitutions are numbered along the chain they refer to. No constants are given. Whether binding was seen depends on the method and setting. A result given as binding can be weak or reduced; the word gives no strength.

Columns and labels:
[1] = molecular target: common marmoset γc protein (extracellular domain), purified (common marmoset (Callithrix jacchus)); experiment: BLI (Octet RED96), antibody 20 µg/mL captured on anti-human IgG biosensors, common marmoset γc as analyte
[2] = molecular target: common marmoset γc protein (extracellular domain), purified (common marmoset (Callithrix jacchus)); experiment: ELISA, plate coated with 1 µg/ml γc protein
[3] = molecular target: common marmoset γc protein (extracellular domain), purified (common marmoset (Callithrix jacchus)); experiment: BLI (Octet), antibody captured on anti-human IgG biosensor, γc protein in solution

Measured: binding

B1: hSM-05A, humanized anti-γc antibody with back-mutation (antibody, V domains shown)
VH: QVQLVQSGAEVLKPGASVKVSCKASGYTFTEYTMHWVKQARGQRLEWIGGIDPYNGGATYNQRFKGKATLTTDTSTSTAYMELRNLRSDDTAVYYCARRRLYYGNALDYWGQGTLVTVSS
VL: DIVMTQSPLSLPVTPGEQASISCRSSQSLVHSNGNTYLHWYLQKPGQSPQLLIYKVSSRFSGVPDRFSGSGSGTDFTLKISRVEAEDVGVYFCSQTTHVPFTFGSGTKLEIKR
binds: all assays above

B2: hSM-05E, humanized anti-γc antibody with back-mutation (antibody, V domains shown)
VH: B1 VH with Y54N, N55T, A58V, R63K, L101R, N105Y
VL: B1 VL with L29I, H39E, S58N, T96S, T102M
binds: all assays above
